Source: publication PMC3975624

Legend:
[1] = target: T1, Mic10-His6 (S. cerevisiae) (UniProt Q96VH5); assay: condition: only mitochondria lysed with 1% digitonin (MICOS complex kept intact); pull-down; mitochondria (1 mg protein) from a strain expressing Mic10-His6 lysed with 1% digitonin (50 mM potassium phosphate, 50 mM NaCl, 10 mM imidazole, pH 8.0, 1 mM PMSF); Ni-NTA beads; bound proteins eluted with Laemmli buffer with 300 mM imidazole; immunoblotting
T1 sequence: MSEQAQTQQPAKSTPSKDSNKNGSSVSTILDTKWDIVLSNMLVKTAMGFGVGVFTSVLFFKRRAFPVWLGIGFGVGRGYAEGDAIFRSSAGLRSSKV

[2] = target: T1, Mic10-His6 (S. cerevisiae); assay: pull-down; mitochondria (1 mg protein) from a strain expressing Mic10-His6 lysed with 1% Triton X-100 (50 mM potassium phosphate, 50 mM NaCl, 10 mM imidazole, pH 8.0, 1 mM PMSF), which dissociates the MICOS complex into smaller complexes; Ni-NTA beads; bound proteins eluted with Laemmli buffer with 300 mM imidazole; immunoblotting

- binding [1]: no binding
- binding [2]: binds
Substance: Aim24

Results are given in words; binding and its absence hold for the method and conditions named. Binding seen in cells or lysates may run through a third protein. For some assays here: Binding calls can cover weak binding; strength is not graded here. Sequences can lack the tags named with a protein.
